Key:
[1] = Boc solid-phase peptide synthesis; azide fragment coupling; DCC/N-hydroxybenzotriazole; OPFP ester; DCC or DIC (sol); settings: whole synthesis, resin weight gain
[2] = general procedure: solution-phase peptide synthesis; azide fragment coupling; DCC/N-hydroxybenzotriazole; OPFP ester; DCC or DIC (sol)

**Q.** With “Glp-His(Tos)-Trp-Ser(oBzl)-Tyr(oBzl)-Aa-Leu-Arg(Tos)-Pro-Gly peptide resin” as the substance, how does the crude yield [1] read?
**A.** 65% as ΔW

**Q.** Which step yield ([2]; late stage modification step) does the source give for H-Aa-Leu-Arg-Pro-NHEt.(TFA)2 here?
**A.** 89.5% yield

**Q.** For “[Aa^6, Gln^8, desGly^10 ]-gonadoliberin ethylamide”, which step yield ([2]; coupling step) is on record?
**A.** 52%

**Q.** For H-Aa-Leu-Gln-Pro-NHEt.TFA, which step yield ([2]; late stage modification step) is on record?
**A.** 86%

**Q.** With Boc-Mab-Leu-Arg-Pro-Gly-NH2 as the substance, how does the step yield ([2]; late stage modification step) read?
**A.** 78.3%

**Q.** What does the source list for “Glp-His(Tos)-Trp-Ser(oBzl)-Tyr(oBzl)-Aa-Leu-Arg(Tos)-Pro-Gly”?
**A.** step yield ([2]; purification step, run 1): 54%; step yield ([2]; purification step, run 2): 61.0%

**Q.** For Boc-Aa-Leu-Arg-Pro-NHEt, which step yield ([2]; late stage modification step) is on record?
**A.** 82.5% yield

**Q.** Which step yield ([2]; late stage modification step) does the source give for H-Mab-Leu-Arg-Pro-Gly-NH2.(TFA)2 here?
**A.** 91.5% yield

**Q.** Which step yield ([2]; coupling step) does the source give for Boc-Aa-Leu-Arg(NO2)-Pro-NHEt here?
**A.** 77.8% yield

**Q.** With Boc-Aa-Leu-Gln-Pro-NHEt as the substance, how does the step yield ([2]; coupling step) read?
**A.** 80% yield

**Q.** With Boc-Mab-Leu-Arg(NO2)-Pro-Gly-NH2 as the substance, how does the step yield ([2]; coupling step) read?
**A.** 68% yield

**Q.** For [Mab^6 ]-gonadiliberin, which step yield ([2]; coupling step) is on record?
**A.** 52%

**Q.** Which step yield ([2]; coupling step) does the source give for “[Aa^6, desGly^10 ]-gonadoliberin ethylamide” here?
**A.** 57.3% yield

**Q.** For Glp-His-Trp-Ser-Tyr-N2 H3, which step yield ([2]; late stage modification step, two steps together) is on record?
**A.** 56.9% yield as calculated for two steps together

— patent publication US4758552 (dated 1988)
